Numbering of substitutions follows the chain as printed. Results are given in words; binding and its absence hold for the method and conditions named. Binding seen in cells or lysates may run through a third protein. These calls come from enrichment with a bait or labelling near it, and not all partners need be listed. Where a sequence is shown, tags or fusion partners need not be part of it.
Tests used:
[1] = biological target: T1, HA-tagged RUNX1T1 E146K (human) (UniProt Q06455); assay: affinity purification with mass spectrometry; fifty million HEK-293T cells expressing HA-RUNX1T1 (WT or mutants) lysed, anti-HA affinity resin, elution with 0.1 M glycine-HCl pH 2.0, trypsin digestion, nanoLC-MS/MS
T1 sequence: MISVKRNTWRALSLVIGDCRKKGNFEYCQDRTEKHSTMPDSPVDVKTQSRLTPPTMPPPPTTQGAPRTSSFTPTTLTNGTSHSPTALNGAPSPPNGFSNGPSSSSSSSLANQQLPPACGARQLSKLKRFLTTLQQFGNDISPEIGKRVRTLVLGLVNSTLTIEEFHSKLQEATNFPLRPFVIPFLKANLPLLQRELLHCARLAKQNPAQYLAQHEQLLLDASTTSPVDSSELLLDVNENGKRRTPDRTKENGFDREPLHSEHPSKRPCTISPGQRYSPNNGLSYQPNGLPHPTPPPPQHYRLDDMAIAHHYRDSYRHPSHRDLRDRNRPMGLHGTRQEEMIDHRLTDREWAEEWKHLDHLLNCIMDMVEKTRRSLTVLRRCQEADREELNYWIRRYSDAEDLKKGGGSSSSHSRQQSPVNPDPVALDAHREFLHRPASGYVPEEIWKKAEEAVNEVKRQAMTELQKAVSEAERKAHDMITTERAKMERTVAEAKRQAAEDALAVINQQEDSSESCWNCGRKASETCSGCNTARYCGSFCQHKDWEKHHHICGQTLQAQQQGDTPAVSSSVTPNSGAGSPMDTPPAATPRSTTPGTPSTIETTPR

Protein sequences, listed by entry. Tags and fused reporters are not part of them.
UniProt O14744: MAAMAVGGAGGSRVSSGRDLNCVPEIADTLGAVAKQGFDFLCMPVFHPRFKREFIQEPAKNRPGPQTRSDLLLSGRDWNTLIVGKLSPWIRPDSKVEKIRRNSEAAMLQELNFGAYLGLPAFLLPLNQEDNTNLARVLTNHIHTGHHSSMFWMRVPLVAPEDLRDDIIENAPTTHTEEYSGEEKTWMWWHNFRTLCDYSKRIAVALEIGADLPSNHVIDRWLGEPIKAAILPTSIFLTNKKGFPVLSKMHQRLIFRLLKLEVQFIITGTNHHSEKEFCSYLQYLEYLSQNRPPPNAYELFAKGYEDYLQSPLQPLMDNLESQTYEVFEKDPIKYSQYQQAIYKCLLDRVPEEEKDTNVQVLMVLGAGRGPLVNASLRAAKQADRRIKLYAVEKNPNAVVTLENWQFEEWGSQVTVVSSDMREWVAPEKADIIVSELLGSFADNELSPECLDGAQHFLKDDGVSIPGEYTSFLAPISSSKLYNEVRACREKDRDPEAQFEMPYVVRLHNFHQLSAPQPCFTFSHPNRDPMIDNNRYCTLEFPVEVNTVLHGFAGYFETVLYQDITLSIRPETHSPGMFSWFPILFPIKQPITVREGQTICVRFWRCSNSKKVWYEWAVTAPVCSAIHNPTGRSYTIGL

[2] = biological target: T2, HA-tagged RUNX1T1 E163K (human) (UniProt Q06455); assay: as above
T2 sequence: T1 sequence with K146E, E163K

binding [1]: binds | binding [2]: binds
Substance: arginine methyltransferase PRMT5 (from UniProt O14744 1-637)

— PMC11589140
